The source of these data is PMC7819943, “Rice protein-binding microarrays: a tool to detect cis-acting elements near promoter regions in rice”.

Sequences of proteins named here, by UniProt entry; tags and fusion partners are left off.
UniProt Q0JBA9, entry or part of it: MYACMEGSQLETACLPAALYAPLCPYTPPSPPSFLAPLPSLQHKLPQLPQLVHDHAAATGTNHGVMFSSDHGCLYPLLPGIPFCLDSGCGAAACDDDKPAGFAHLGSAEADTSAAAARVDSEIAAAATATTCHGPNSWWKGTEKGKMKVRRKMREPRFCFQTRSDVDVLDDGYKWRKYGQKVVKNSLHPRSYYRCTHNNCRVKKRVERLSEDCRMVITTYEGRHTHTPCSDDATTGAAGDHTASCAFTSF

This is one part of the list.

The target in the assay is OsWRKY34 (Oryza sativa, UniProt Q0JBA9 1-250). Nature of the assay: protein-binding microarray (RPBM); PBS, 2% BSA, 51.3 ng/ul salmon testes DNA, 50 uM zinc acetate, 200 nM TF, 25 C, 1 h; high values mean tight binding. The conditions noted are these: protein: recombinant; tags: N-terminal polyhistidine and DsRed monomer fusion (pET32a); label: CyDye5-dUTP incorporated in the synthesized complementary strand; 3' TTTTT single-stranded linker to array surface; dsDNA, one strand shown. The procedure, abridged: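 Per-feature fluorescence intensity (arbitrary units), read on an Axon 4000B scanner, is the binding signal. Transcription factors carrying an N-terminal polyhistidine tag and DsRed fusion were expressed in E. coli BL21-CodonPlus and purified on Ni–NTA. A custom Agilent array, made double-stranded by primer extension with Cy5-dUTP and blocked with 2% BSA, was incubated with 200 nM protein in PBS, 2% BSA, salmon testes DNA and 50 µM zinc acetate at 25 °C for 1 h and then washed.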
Regarding “TTTCTTGTATTGGTGGCATCCAGCTTCTTCGTCTGTCTCTCGGAGTCACCTAGTGCAG”, the binding signal was 11500 fluorescence intensity (a.u.).
“ATTCGGCGCCCCTACTCTTCCTCTCCGGCGAGCTTTTTCACGGAGTCACCTAGTGCAG”: the binding signal is 9710 fluorescence intensity (a.u.).
As for “GGGTGGAATTTCTCGAACCCATGTACGCGTTTGACTTGATCGGAGTCACCTAGTGCAG”, the binding signal was 9450 fluorescence intensity (a.u.).
Take “TTTTATAGTTTGTGTGTGATTGAGCCTGTAACTTTTTCATCGGAGTCACCTAGTGCAG”: the binding signal is 10000 fluorescence intensity (a.u.).
Under “CTGCGACAACCGCTGCTCCGGCACCTACTGCTCCTGAGAACGGAGTCACCTAGTGCAG” stands 8050 fluorescence intensity (a.u.); under “TAACCTAACTGTTCTCGTCCATATCTAACGACGGCCGCCTCGGAGTCACCTAGTGCAG”, 8140 fluorescence intensity (a.u.).
In the case of “TGAGTTTTTGTTTGTATTGTTTGACTACTCGTCTTATTCACGGAGTCACCTAGTGCAG”, the binding signal was 10400 fluorescence intensity (a.u.).
Under “TGTGGGCATGTGTGTTTTTCTTGCTTATTGGATTGCCGCACGGAGTCACCTAGTGCAG” stands 8490 fluorescence intensity (a.u.).
For the sequence “CGCATCTCCAATTCAGTTTTTCTTTTTCCCTTTCGCATCTCGGAGTCACCTAGTGCAG”, the binding signal was 11900 fluorescence intensity (a.u.).
Under “GCGCCTTTTTCCATCCATCTACGGCTACTTTCCTGCACGACGGAGTCACCTAGTGCAG” stands 9910 fluorescence intensity (a.u.); under “CTGCTGGCCTACTACTGTGTTGCTGCTTGTATCTTTTTTTCGGAGTCACCTAGTGCAG”, 15500 fluorescence intensity (a.u.); under “ATAATTTGATCGATACGCCCTGTACTTTTTTCTTCAATTGCGGAGTCACCTAGTGCAG”, 8660 fluorescence intensity (a.u.).
Under “TCGCTCTTCGATCTTCCGCCCAAGTTCTTCGCTCGCATCCCGGAGTCACCTAGTGCAG” stands 12000 fluorescence intensity (a.u.); under “TTCCCCTAATGCTATGCTCCTTGTTCTTTCGTCATTAGATCGGAGTCACCTAGTGCAG”, 11500 fluorescence intensity (a.u.).
Take “TCCCCTATCCCATTAGCCAAACACTGCCTAACTGTTCACCCGGAGTCACCTAGTGCAG”: the binding signal was 9310 fluorescence intensity (a.u.).
The figure for “TGTTCATTAGTATCATTTACTCTCTGACTACTTTTTAGCTCGGAGTCACCTAGTGCAG” is 9810 fluorescence intensity (a.u.); for “GGTTGTAATCTATAGGGGTCCTTGTATAGAAATATCGTTTCGGAGTCACCTAGTGCAG” it is 8880 fluorescence intensity (a.u.).
As for “TCTCACCCGTCCATCGACCACAATCCAGCGGTCAGAAACTCGGAGTCACCTAGTGCAG”, the binding signal is 8920 fluorescence intensity (a.u.).
Under “CGCCGCCGCCTAGCTTCTTCCCGTGCTCGCCCGTCGCCGACGGAGTCACCTAGTGCAG” stands 8840 fluorescence intensity (a.u.); under “CCGTCCCGCAATAGTTATCGCTTTGGGTTTTTCCTTTCAACGGAGTCACCTAGTGCAG”, 8190 fluorescence intensity (a.u.).
The figure for “ATTATATTGTTGGTTTAACTCTCCACTGCTTTAAAAAGTACGGAGTCACCTAGTGCAG” is 8310 fluorescence intensity (a.u.).
Turning to “GGGAGGATTTTTACTGTCCTTGATAGTGGCCGGTACCAAACGGAGTCACCTAGTGCAG”, the binding signal was 14100 fluorescence intensity (a.u.).
For the sequence “AAAACAATGGCAAAGTTTCTCTATCTGATCATCCTTTCATCGGAGTCACCTAGTGCAG”, the binding signal was 9030 fluorescence intensity (a.u.).
The figure for “ACGTACCAACCTCATGGGCTTAATCGGCCCATTACGCGCTCGGAGTCACCTAGTGCAG” is 8290 fluorescence intensity (a.u.).
With “ATGTGGGTCAGGGTGGCATATCACAAATTTTGTAAAATTTCGGAGTCACCTAGTGCAG”, the binding signal was 8770 fluorescence intensity (a.u.).
Under “TAGATATCAAATGTTAGGCTTTGGGTTGAATTTTGTTTTACGGAGTCACCTAGTGCAG” stands 8150 fluorescence intensity (a.u.); under “GTCCCCACTACTCCACCGCGCCTCTCGCTTCCTCCGTCCCCGGAGTCACCTAGTGCAG”, 15000 fluorescence intensity (a.u.).
Under “CCAAGTCCAGGAGATCTTTTCCCTGTTCTTTCGTCGTTGTCGGAGTCACCTAGTGCAG” stands 8680 fluorescence intensity (a.u.); under “GTACTTATACTTGGACTCTCCTTTTCTTTTTTCTTTTTCTCGGAGTCACCTAGTGCAG”, 12700 fluorescence intensity (a.u.).
As to “CGGGGTCTGGGATCTGGGTTTCCATTGGGCCACGAGGCGCCGGAGTCACCTAGTGCAG”, the binding signal was 9520 fluorescence intensity (a.u.).
For “ACCCTATGCTAGCATGCTACACCTTGTTTTTATCTCACTACGGAGTCACCTAGTGCAG”, the binding signal was 13900 fluorescence intensity (a.u.).
The figure for “TTTTTTGTGGTACCGGTTTTTTTTCCTGTGCTATGGATTGCGGAGTCACCTAGTGCAG” is 10800 fluorescence intensity (a.u.); for “CGAACAGACACGAGGGTTATCTTCCTTTTCTCTTCTTCTTCGGAGTCACCTAGTGCAG” it is 8480 fluorescence intensity (a.u.); for “TTCCTTTATTTTTTTTTCTCAAACGCTCTTGACACTTGAGCGGAGTCACCTAGTGCAG” it is 9210 fluorescence intensity (a.u.).
The figure for “AGTGTTTGTTCATTTTATAGCCATTTTTAACCTTTTTAAACGGAGTCACCTAGTGCAG” is 11000 fluorescence intensity (a.u.); for “GCGCGGGCGGGCTAAAATTAGCGGGAGAGGGAGGAGTTGACGGAGTCACCTAGTGCAG” it is 8280 fluorescence intensity (a.u.).
The figure for “TCGCCATCTCCACCTCCTCCATTCCACCTCCACTCCCGCTCGGAGTCACCTAGTGCAG” is 8730 fluorescence intensity (a.u.); for “GCATCATTATTTAGTATTTTATGTCTTTTATCTGTACAATCGGAGTCACCTAGTGCAG” it is 15400 fluorescence intensity (a.u.).
Regarding “GTCTCGTAATTTTCTGTTGAACTATGTAATTGATTTCTTTCGGAGTCACCTAGTGCAG”, the binding signal is 9590 fluorescence intensity (a.u.).
Under “CATCTCCACAGTACACGAGTGCTCATTGCCTTCCAAGCACCGGAGTCACCTAGTGCAG” stands 8390 fluorescence intensity (a.u.); under “ACTTTTCTCCGTCATCGATCTCTCTTGCCTTAAATGGACGCGGAGTCACCTAGTGCAG”, 8620 fluorescence intensity (a.u.).
For the sequence “TTGTGATTTGTGGGATTAGTATCTCTGTCGGTGTCATATCCGGAGTCACCTAGTGCAG”, the binding signal is 9600 fluorescence intensity (a.u.).
